In patent US20110065102A1:
Results are given in words; binding and its absence hold for the method and conditions named. Binding seen in cells or lysates may run through a third protein. These calls come from enrichment with a bait or labelling near it, and not all partners need be listed. Where a sequence is shown, tags or fusion partners need not be part of it.

Protein sequences, listed by entry. Tags and fused reporters are not part of them.
UniProt P07437: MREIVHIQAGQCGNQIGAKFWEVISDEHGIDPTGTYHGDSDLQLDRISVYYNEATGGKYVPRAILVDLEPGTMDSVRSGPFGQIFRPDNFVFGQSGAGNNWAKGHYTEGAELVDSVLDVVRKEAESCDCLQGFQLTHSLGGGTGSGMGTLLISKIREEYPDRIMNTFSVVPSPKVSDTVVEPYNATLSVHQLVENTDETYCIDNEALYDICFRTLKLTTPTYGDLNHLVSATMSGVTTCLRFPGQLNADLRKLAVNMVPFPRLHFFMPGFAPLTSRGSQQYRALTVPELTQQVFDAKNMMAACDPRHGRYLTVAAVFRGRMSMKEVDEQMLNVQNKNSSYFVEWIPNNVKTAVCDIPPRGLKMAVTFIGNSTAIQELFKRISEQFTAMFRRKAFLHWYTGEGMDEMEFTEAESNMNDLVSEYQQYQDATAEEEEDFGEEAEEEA

Target: β-tubulin (endogenous, co-precipitated from HCS-2/8 or HEK293 cell lysates) (UniProt P07437)
Assay: pull-down with S-protein agarose from transfected cell lysates, SDS-PAGE, MALDI/TOF mass spectrometry

binding: binds
B1: amino-terminal S-tagged DIVA (Dual Intracellular Von Willebrand factor domain A) expressed from pTriEx4 in HCS-2/8 or HEK293 cells (protein, not shown: small tags and cut ends)
chain: MGLALKFILDHHFQEASGSRASQEVPQIAVVISSGPVEDHVHGPAKALRKAGILLYAIGVRDAVWAELREIASSPQENFTSFVPNFSGLSNLAQKLRQELCDTLAKAAPHVDHVSPACREAALADIVFLVDSSTSIGPQNFQKVKNFLYSVILGLDISSDRVRVGLAQYNDNIYPAFQLNQHPLKSMILEQIQNLPYRTGGTNTGSALEFIRTNYLTEESGSRAKDRVPQIVILVTDGESNDEVQEVADRLKEDGVVVLCGRGQCPGCPRVAKNNQ
